# From US20200323962A1, “LIPOPHILIC PEPTIDE PRODRUGS” (YISSUM RESEARCH DEVELOPMENT COMPANY OF THE HEBREW …, priority 2017, published 2020)
# Key:
# in vitro [1] = settings: human
# in vitro [2] = settings: human, Caco-2, pH 7.4, Papp (AB)
smiles,measurement,setting,value
CC(C)NCC(O)COc1ccc(CC(N)=O)cc1 (centres unmarked) [atenolol],Papp A→B at 150 min,"in vitro [1]; Caco-2, Caco-2 Papp A-to-B",0.25 ×10⁻⁶ cm/s
same,Papp A→B at 150 min,"in vitro [1]; Caco-2, Papp AB",0.31 ± 0.08 ×10⁻⁶ cm/s
same,"Papp A→B at 90 min, 10 μM",in vitro [2]; Mean,0.8 ×10⁻⁶ cm/s
same,"Papp A→B at 90 min, 10 μM",in vitro [2]; replicate 1,1 ×10⁻⁶ cm/s
same,"Papp A→B at 90 min, 10 μM",in vitro [2]; replicate 2,0.8 ×10⁻⁶ cm/s
